Results deposited as PubChem BioAssay AID1259405 (NCATS, 2018).

- Test: 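Mouse-designed siRNAs used to find CHO productivity engineering targets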 (primary screen)
- System: Chinese hamster CHO-K1 ovary cells with stable secreted eGFP expression
- Knock-down reagent: single siRNA against mouse genes, 0.8 pmol siRNA per well (2 µl of 400 nM stock)
- Time to read-out: 3 days
- Detection: 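Per-well intracellular GFP measured by laser scanning cytometry, plus viability from ATP luminescence, each relative to plate median of non-targeting control wells, in %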
- Scale: GFP, % of control: higher = more GFP per well, higher productivity; viability (ATP), % of control: higher = more viable cells (more ATP)
- Rule for the call: 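a knock-down is called active if GFP reaches 120% or more of non-targeting control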
Shown is one part, drawn at random, of about 50,000 deposited reagents. Of all reagents, about 4,000 (8%) got an active call. 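Mouse siRNA library applied to hamster cells; one well for each siRNA.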 Reagents against one gene are numbered here.

gene symbol	reagent	GFP, % of control	viability (ATP), % of control	activity call
Cth	1	61.4	49.6	inactive
Cth	2	59.7	60.2	inactive
Cth	3	38.9	63.3	inactive
Sh3gl3	1	64.3	62.7	inactive
Sh3gl3	2	43.5	51.1	inactive
Sh3gl3	3	51.1	75	inactive
Anxa3	1	132	122	active
Anxa3	2	74.8	120	inactive
Anxa3	3	44.3	72.2	inactive
Sprr3	1	84.1	84.4	inactive
Sprr3	2	144	115	active
Chrm4	1	109	61.8	inactive
Chrm4	2	58.1	79.2	inactive
Chrm4	3	68.3	63.1	inactive
Traf2	1	57.2	54.2	inactive
Traf2	2	55.5	71.9	inactive
Traf2	3	67.9	69.6	inactive
Lxn	1	77.3	72.8	inactive
Lxn	2	106	96.4	inactive
Lxn	3	136	151	active
Usp39	1	153	98	active
Usp39	2	108	94.4	inactive
Jtb	1	78.2	85.3	inactive
Jtb	2	49.8	49.7	inactive
Jtb	3	59.5	54.1	inactive
Ugt2b5	1	88.9	88.2	inactive
Ugt2b5	2	67.7	96.7	inactive
Ugt2b5	3	73.4	56.7	inactive
Pabir3	1	98.5	91.2	inactive
Pabir3	2	71.9	59.1	inactive
Pabir3	3	103	75	inactive
1700065D16Rik	1	80	61.3	inactive
1700065D16Rik	2	53.7	49.6	inactive
1700065D16Rik	3	50.9	68.5	inactive
Pard6a	1	60.1	76.4	inactive
Pard6a	2	97.4	55.7	inactive
Pard6a	3	78.1	131	inactive
Pdk1	1	73.2	67.1	inactive
Gsc	1	75.4	81.5	inactive
Gsc	2	53.1	50.6	inactive
Gsc	3	104	95.9	inactive
Elof1	1	100	84.2	inactive
Elof1	2	69.9	75.2	inactive
Elof1	3	77.2	46.2	inactive
Aasdh	1	93.6	65.6	inactive
Aasdh	2	108	89.4	inactive
Aasdh	3	91.1	102	inactive
Celsr2	1	64.2	72.7	inactive
Celsr2	2	27.9	48.2	inactive
Celsr2	3	91.1	83.2	inactive
Tcea1	1	85.4	86.8	inactive
Tcea1	2	86	53.3	inactive
Tcea1	3	70.7	102	inactive
Pald1	1	99.4	54.3	inactive
Pald1	2	115	62.2	inactive
Pald1	3	67.1	123	inactive
Cdh2	1	61.5	64.5	inactive
Cdh2	2	104	62.8	inactive
Cdh2	3	112	56.6	inactive
